Experimental data published in PubChem BioAssay AID2685 (National Center for Advancing Translational Sciences (NCATS), 2010).
The list shows a part of the results. Shown are side measurements of this screen, not its main read-out; they come without a call. Most of these compounds were active or inconclusive in the main read-out, so they are no random draw. Potencies come from curve fits of mixed quality, noted in brackets.

Test: qHTS Assay for Lipid Storage Modulators in Drosophila S3 Cells;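 for cell number change: cells counted by Cell Tracker Red CMTPX staining in the red channel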
Settings: BODIPY lipid droplet fluorescence, 18-24 h; for cell number change: measured here: cell count max response, cells fed with added oleic acid
In short: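 Drosophila S3 cells loaded with oleic acid (400 uM, as added) and compounds at several concentrations; lipid droplets imaged by 488-nm laser-scanning cytometry, 500–530 nm intensity and object ratio to cell channel. Percent activity normalized to 20 uM Triacsin C.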

[1] = measured here: cell number channel AC50, cells fed with added oleic acid
[2] = measured here: lipid fluorescence (Fed channel) AC50, cells fed with added oleic acid

Compound	cell number change [%]	AC50 [1]	AC50 [2]
COc1ccc(C(=O)N[C@H](C(=O)Nc2ccc(OC)nc2)C(C)C)cc1	47	3.26 µM [rising, partial curve]	4.11 µM [rising, partial curve, poor fit]
CC1(C)Oc2ccc3ccc(=O)oc3c2/C(=C/NNC(N)=S)C1=O	-13.9		0.58 µM [rising, single point]
CCc1cc(=O)[nH]c(SCC(=O)N2CCC(Cc3ccccc3)CC2)n1	75	29.1 µM [rising, single point]	
CCN(CC(=O)NCc1cccs1)C(=O)c1ccccc1F	-5.48		
Cc1nc2sc3c(c2c(=O)o1)CCCC3			20.6 µM [falling, partial curve]
CCCn1c(-c2cc(OC)c(OC)c(OC)c2)nc2nc3ccccc3nc21	-28.1		
Cc1ccc(NC(=S)NC2CCN(Cc3ccccc3)CC2)cc1	27.3		
COc1ccccc1N(C)S(=O)(=O)c1ccc(Cl)c(C(=O)NCCCN2CCOCC2)c1	-1.62		20 µM [falling, single point]
CC(=O)Nc1ccc(S(=O)(=O)Oc2cccc(N3C(=O)C4CC=CCC4C3=O)c2)cc1 (centres undefined)	72.7		
COc1cccc(C(=O)NC2CCCc3ccccc32)c1OC (centres undefined)	-0.794	0.461 µM [rising, single point]	7.31 µM [falling, single point]
CCC(=O)OC1(C(=O)CCl)[C@@H](C)C[C@H]2[C@@H]3CCC4=CC(=O)C=C[C@]4(C)[C@@]3(F)[C@@H](O)C[C@@]21C (some centres undefined)	32	0.0651 µM [rising, full curve]	1.16 µM [rising, full curve]
CC(C)CCn1c(=O)c(C(=O)N/N=C/c2cccc(F)c2)c(O)c2ccccc21	-5.98		0.00461 µM [rising, full curve, poor fit]
C=CCSc1ccc(S(=O)(=O)N2CCN(C)CC2)cn1	-3.1	0.517 µM [falling, full curve, poor fit]	0.103 µM [falling, full curve, poor fit]
Cc1ncc[nH]1	3.62		1.16 µM [rising, single point]
Cc1oc(-c2ccc(Cl)cc2)nc1CS(=O)CC(=O)NC1CCCCCC1 (centres undefined)	-0.38		6.51 µM [rising, single point]
O=C1c2ccccc2C(=O)C1(O)O	-16.3		10.3 µM [falling, single point]
CCOc1ccccc1NC(=O)c1nnn(CC(=O)Nc2ccc3c(c2)OCO3)c1N	15.2		
Cc1ccc(NC(=O)COc2cccc(C)c2C)cc1S(=O)(=O)N1CCCCCC1	29.8		1.46 µM [rising, full curve]
CC(NC(=O)C12CC3CC(CC(C3)C1)C2)C(=O)N/N=C/C1=C(N2CCOCC2)C(=C\c2ccccc2)/CC1 (centres undefined)	-10.1		
CCOC(=O)c1c(-c2ccc(OC)cc2)csc1/N=C/C1=C(O)CCCC1=O	-21		29.1 µM [falling, single point]

Sorted by heavy-atom count (smallest number first): part of the list above.
Compound	cell number change [%]	AC50 [1]	AC50 [2]
CCc1cc(=O)[nH]c(SCC(=O)N2CCC(Cc3ccccc3)CC2)n1	75	29.1 µM [rising, single point]	
CCCn1c(-c2cc(OC)c(OC)c(OC)c2)nc2nc3ccccc3nc21	-28.1		
CC(NC(=O)C12CC3CC(CC(C3)C1)C2)C(=O)N/N=C/C1=C(N2CCOCC2)C(=C\c2ccccc2)/CC1 (centres undefined)	-10.1		

Part of the list above, as a markdown table.

| Compound | cell number change [%] | AC50 [1] | AC50 [2] |
| --- | --- | --- | --- |
| CCC(=O)OC1(C(=O)CCl)[C@@H](C)C[C@H]2[C@@H]3CCC4=CC(=O)C=C[C@]4(C)[C@@]3(F)[C@@H](O)C[C@@]21C (some centres undefined) | 32 | 0.0651 µM [rising, full curve] | 1.16 µM [rising, full curve] |
| CC(C)CCn1c(=O)c(C(=O)N/N=C/c2cccc(F)c2)c(O)c2ccccc21 | -5.98 |  | 0.00461 µM [rising, full curve, poor fit] |

Next results:

Compound	cell number change [%]	AC50 [1]	AC50 [2]
CCOc1ccccc1NC(=O)COC(=O)C(Cc1ccccc1)NC(=O)c1ccco1 (centres undefined)	-3.88		6.51 µM [falling, partial curve, poor fit]
Cc1ccc(C)c(Cn2c(=O)n(CCC(=O)NCc3ccco3)c(=O)c3sccc32)c1		6.51 µM [rising, partial curve, poor fit]	
CCCCNC(=S)Nc1ccc(C(F)(F)F)cc1	-49.3	16.4 µM [falling, single point]	
Cn1nnc2cc(NC(=O)Nc3cccc(C(F)(F)F)c3)ccc21			1.16 µM [falling, full curve, poor fit]
Cc1ccc(NC(=O)c2ccc(S(=O)(=O)NCc3cccnc3)cc2)cc1C	12.8		29.1 µM [falling, single point]
O=C(COC(=O)Cc1cccc(C(F)(F)F)c1)NCc1ccco1	14.2		6.51 µM [rising, partial curve, poor fit]
Cc1nn(Cc2ccccc2)c(N)c1-c1ccccc1	-22.2		0.00461 µM [rising, full curve, poor fit]
COc1ccc(C(=O)Nc2ccc(Cl)cc2C(=O)N2CCCC(C)C2)cc1OC (centres undefined)	1.28		29.1 µM [rising, single point]
COc1ccc(NC(=O)N2CCCC(C(=O)Nc3cccc(C)c3C)C2)cc1 (centres undefined)	10.3		
CCCCC1NC(C(=O)O)CS1 (centres undefined)	-31.6	5.17 µM [falling, full curve]	5.8 µM [falling, full curve, poor fit]
O=C(NC1CCS(=O)(=O)C1)Oc1ccccc1 (centres undefined)	-111		0.116 µM [falling, full curve, poor fit]
COCCCNC(=O)c1cc(=O)n(Cc2ccc(Cl)cc2)c2ccccc12	-32	3.66 µM [falling, full curve]	3.26 µM [falling, full curve]
Cc1ccc(S(=O)(=O)CCC(=O)N(CCN2CCOCC2)c2nc3ccccc3s2)cc1	-40	18.4 µM [falling, partial curve]	
O=C(Nc1ccc(Oc2ccc3c(c2)C(=O)N(c2ccc(O)cc2)C3=O)cc1)c1cccs1	-32.5	3.66 µM [falling, partial curve, poor fit]	
CCc1ccccc1N1CC(C(=O)O)CC1=O (centres undefined)	-5.82		0.116 µM [falling, full curve, poor fit]
COC(=O)C1=C(C)N(CCCC(=O)O)C(=O)NC1c1ccc(Br)cc1 (centres undefined)	-10.2		16.4 µM [falling, partial curve, poor fit]
CC(C)(C)N1CC(OC(N)=O)C1	-20.1		5.8 µM [falling, full curve, poor fit]
CC(Cl)C(=O)c1c[nH]c2ccccc12 (centres undefined)	36.4	0.0291 µM [rising, full curve, poor fit]	
CC(=O)C1=C(C)NC(SCc2cccc([N+](=O)[O-])c2)=C(C#N)C1c1ccco1 (centres undefined)	-30	29.1 µM [falling, single point]	2.31 µM [rising, partial curve, poor fit]
CC(=O)c1cccc(S(=O)(=O)NCC(C)(C)N2CCOCC2)c1	13.6		

Compound	cell number change [%]	AC50 [1]	AC50 [2]
COC(=O)c1cc(NC(=O)c2ccccc2)c(=O)oc1/C=C/Nc1ccc(Oc2ccccc2)cc1	-97.7	29.1 µM [falling, partial curve, poor fit]	0.00517 µM [falling, full curve, poor fit]
CC(Oc1ccccc1F)c1nnc(SCC(=O)c2c(N)n(C3CC3)c(=O)[nH]c2=O)o1 (centres undefined)	14.2	0.0291 µM [falling, full curve, poor fit]	
CC(=O)Nc1ccc(NC(=O)/C=C/c2ccccc2)cc1	-4.21		
Cc1ccc(C(=O)COC(=O)c2cc(Cl)nc3ccccc23)cc1C	8.89		4.61 µM [rising, full curve, poor fit]
O=C(COc1ccc2ccc(=O)oc2c1)NCc1ccccn1	15.5		
Cc1ccc(S(=O)(=O)N(C)CC(=O)OCC(=O)N2CCCC2=O)cc1		6.51 µM [falling, partial curve, poor fit]	
CCS(=O)(=O)n1nc(-c2ccc(Cl)cc2)nc1SCc1ccccc1	-80.4	29.1 µM [falling, single point]	29.1 µM [falling, single point]
COc1cccc(OCC(=O)Nc2ccccc2C(=O)Nc2ccc(C(=O)O)cc2)c1	12.4		
NC(=O)c1cc(S(=O)(=O)NCc2cccc(Br)c2)cs1	-22.1		29.1 µM [rising, single point]
Cc1ccc(-c2nnc(Nc3ccc(OCC(N)=O)cc3)c3ccccc23)cc1S(N)(=O)=O	-8.33		
CCS(=O)(=O)CCSC(=N)N			0.291 µM [falling, partial curve, poor fit]
Oc1ccc(Cl)cc1-c1cc(-c2cccc(Br)c2)n[nH]1	-3.9	0.092 µM [rising, full curve, poor fit]	6.51 µM [falling, partial curve, poor fit]
Cc1ccc2nsnc2c1NC(=O)c1ccc2c(c1)OCCO2	25.9		18.4 µM [rising, single point]
CCOC(=O)N1CCN(S(=O)(=O)c2ccc(Br)s2)CC1	55.8	20.6 µM [rising, single point]	13 µM [rising, partial curve]
COc1ccc2nc(/N=C(\N)NC(=O)Nc3ccccc3)nc(C)c2c1	-43.8	29.1 µM [falling, single point]	0.116 µM [rising, full curve]
COc1cc(NC(=O)COC(=O)Cc2ccc(-c3ccccc3)cc2)cc(OC)c1	-30.1	20.6 µM [falling, single point]	
COc1cc(OC)cc(C(=O)NNC(=O)CNC(=O)c2ccc(Br)o2)c1			0.231 µM [rising, full curve, poor fit]
Clc1ccc(C(Cn2ccnc2)OCc2c(Cl)cccc2Cl)c(Cl)c1 (centres undefined)	-27.5	0.461 µM [rising, full curve]	0.517 µM [rising, full curve]
CN1/C(=C\C(=O)c2cccs2)C(C)(C)c2ccccc21	35.8	6.51 µM [rising, partial curve]	29.1 µM [falling, partial curve, poor fit]
